From PubChem BioAssay (Tox21)
Several values for one entry are separate records, joined by “and”; a condition that tells them apart may be missing. Identical values can stand only once. Inconclusive results, whose numbers are uncertain, are shown with a selection of clear calls. Potencies of inconclusive entries are doubtful fits and often do not repeat. Activity calls are given as the source filed them. Calls follow the shape of the dose curve; as a rule, active = well fitted inhibition curve with a large enough effect in the signal ratio in the repeat runs (not every such curve was filed as active); inconclusive = weak or mixed curves, or effect the other way; inactive = flat fitted curve, though single readings scatter; the % refers to the signal ratio.

assay: cAMP Responsive Elements (CRE) small molecule antagonists, cell-based qHTS assay (AID 1963591); conditions: CRE-bla HEK293T, beta-lactamase FRET ratio; activity change, negative = inhibition: at 92.4 µM (top of the series) unless noted
Outline: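 Antagonist mode: test compounds are co-incubated with the adenylyl cyclase activator NKH477 (0.25 uM final) on CRE-bla HEK293T cells for 3 h at 37 °C, followed by LiveBLAzer substrate loading.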
% is scaled to controls: 0 for no effect and ±100 for the full control effect; potency is read from the fitted curve at half-maximal effect.

Row | Structure (SMILES) | activity change, negative = inhibition | Potency
1 | Oc1c(Cl)cc(Cl)c2cccnc12 | inconclusive: -18.1% [at 42.4 µM] | –
2 | COc1ccc(-c2cc(=S)ss2)cc1 | inactive: 0.0985% [at 42.4 µM] | –
3 | N#C/C(=C1/SC[C@@H](c2ccc(Cl)cc2Cl)S1)n1ccnc1 | – | inconclusive: 29.8 µM [fluorescent, partial curve, poor fit]
4 | Clc1ccc(Cn2c(CN3CCCC3)nc3ccccc32)cc1 | inconclusive: 17.7% [at 42.4 µM] | –
5 | O=C(O)Cc1cc(I)c(Oc2ccc(O)c(I)c2)c(I)c1 | – | inconclusive: 63.9 µM [fluorescent, partial curve]
6 | C[C@]12CC[C@@H]3c4ccc(O)cc4C[C@@H](CCCCCCCCCS(=O)CCCC(F)(F)C(F)(F)F)[C@H]3[C@@H]1CC[C@@H]2O (some centres undefined) | inconclusive: 20.2% [at 42.4 µM] | –
7 | Cc1cccc(Nc2cc(Cl)nc(SCC(=O)O)n2)c1C | – | inconclusive: 30.6 µM [fluorescent, partial curve] and inconclusive: 50.1 µM [fluorescent, partial curve] and inconclusive: 29.8 µM [fluorescent]
8 | CC(=O)c1ccc2ccc3ccccc3c2c1 | inactive: 0.0526% | –
9 | CO[C@H]1C=CO[C@@]2(C)Oc3c(C)c(O)c4c(O)c(c5c(c4c3C2=O)=NC2(CCN(CC(C)C)CC2)N=5)NC(=O)/C(C)=C\C=C/[C@H](C)[C@H](O)[C@@H](C)[C@@H](O)[C@@H](C)[C@H](OC(C)=O)[C@@H]1C | – | inconclusive: 26.7 µM [fluorescent, partial curve]
